Results published in paper doi:10.1101/2020.11.16.384271.
No constants are given. Whether binding was seen depends on the method and setting. Binding seen in cells or lysates may run through a third protein. Some binding calls cover weakened binding; strength is not graded here.

Chains of the proteins cited; added tags and fusions are not shown. Residues count along the entry.
UniProt P52948, residues 1-880: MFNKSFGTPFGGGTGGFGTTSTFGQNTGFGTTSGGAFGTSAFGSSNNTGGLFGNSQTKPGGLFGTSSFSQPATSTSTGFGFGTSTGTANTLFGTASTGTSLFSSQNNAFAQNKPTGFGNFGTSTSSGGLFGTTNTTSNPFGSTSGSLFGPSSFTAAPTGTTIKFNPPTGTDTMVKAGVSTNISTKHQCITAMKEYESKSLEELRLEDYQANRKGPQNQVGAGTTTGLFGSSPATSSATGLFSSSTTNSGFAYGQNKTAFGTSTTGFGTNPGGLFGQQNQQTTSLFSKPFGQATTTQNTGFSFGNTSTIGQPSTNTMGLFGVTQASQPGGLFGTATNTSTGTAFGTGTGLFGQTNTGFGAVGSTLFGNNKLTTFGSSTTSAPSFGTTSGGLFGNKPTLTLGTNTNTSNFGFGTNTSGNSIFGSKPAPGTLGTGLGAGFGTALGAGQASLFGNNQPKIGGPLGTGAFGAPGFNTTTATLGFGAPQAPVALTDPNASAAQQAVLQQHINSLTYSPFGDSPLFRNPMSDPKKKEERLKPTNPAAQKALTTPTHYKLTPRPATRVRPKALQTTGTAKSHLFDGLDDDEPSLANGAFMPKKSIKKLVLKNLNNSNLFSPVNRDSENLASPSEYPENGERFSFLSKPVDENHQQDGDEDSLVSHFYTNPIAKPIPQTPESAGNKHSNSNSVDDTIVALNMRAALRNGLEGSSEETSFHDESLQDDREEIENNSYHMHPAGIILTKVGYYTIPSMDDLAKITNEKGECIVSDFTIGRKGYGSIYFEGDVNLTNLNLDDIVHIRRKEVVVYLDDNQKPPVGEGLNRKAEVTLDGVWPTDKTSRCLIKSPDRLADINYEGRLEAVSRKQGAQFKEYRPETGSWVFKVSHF

Biological target: endogenous NUP98 (Nucleoporin 98) (human (endogenous in HL-60)) (UniProt P52948)
Experiment: co-IP

B1: mRNA export factor RAE1 (protein, UniProt P78406 1-368)
chain: MSLFGTTSGFGTSGTSMFGSATTDNHNPMKDIEVTSSPDDSIGCLSFSPPTLPGNFLIAGSWANDVRCWEVQDSGQTIPKAQQMHTGPVLDVCWSDDGSKVFTASCDKTAKMWDLSSNQAIQIAQHDAPVKTIHWIKAPNYSCVMTGSWDKTLKFWDTRSSNPMMVLQLPERCYCADVIYPMAVVATAERGLIVYQLENQPSEFRRIESPLKHQHRCVAIFKDKQNKPTGFALGSIEGRVAIHYINPPNPAKDNFTFKCHRSNGTNTSAPQDIYAVNGIAFHPVHGTLATVGSDGRFSFWDKDARTKLKTSEQLDQPISACCFNHNGNIFAYASSYDWSKGHEFYNPQKKNYIFLRNAAEELKPRNKK
Question: For B1, which binding is on record?
Answer: binds
